# Measured values published in the supplement of paper PMC8728848.
# The list shows a part of the results.
# B1: DCIR1 (Mus musculus), Q9QZ15 (protein)
# chain: MASEITYAEVKFKNESNSLHTYSESPAAPREKPIRDLRKPGSPSLLLTSLMLLLLLLAITFLVAFIIYFQKYSQLLEEKKAAKNIMHNELNCTKSVSPMEDKVWSCCPKDWRLFGSHCYLVPTVSSSASWNKSEENCSRMGAHLVVIQSQEEQDFITGILDTHAAYFIGLWDTGHRQWQWVDQTPYEESITFWHNGEPSSGNEKCATIIYRWKTGWGWNDISCSLKQKSVCQMKKINL
# Legend:
# Assay in all cases: glycan array binding signal (z-score within array); higher = stronger binding
# Settings in all cases: glycan notation: IUPAC condensed, linker removed
# Neu5Ac(a2-3)Gal = biological target: Neu5Ac(a2-3)Gal
# Summary of the method: (§1)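 The binding signal is a Z-score computed within each array. Data were drawn from 3228 arrays in the Consortium for Functional Glycomics database, restricted to those with a known protein sequence. Scores were averaged over arrays of the same protein sequence at different concentrations or buffers, and over linkers, and negative values can be taken as non-binding.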
# [1] = biological target: Neu5Ac(a2-3)Gal(b1-3)GalNAc
# Summary of the method: as §1
# [2] = biological target: Neu5Ac(a2-3)Gal(b1-3)GalNAc(b1-3)Gal(a1-4)Gal(b1-4)Glc
# Summary of the method: as §1
# [3] = biological target: Neu5Ac(a2-3)Gal(b1-3)GalNAc(b1-4)[Neu5Ac(a2-3)]Gal(b1-4)Glc
# Summary of the method: as §1
# [4] = biological target: Neu5Ac(a2-3)Gal(b1-3)GalNAc(b1-4)[Neu5Ac(a2-8)Neu5Ac(a2-3)]Gal(b1-4)Glc
# Summary of the method: as §1
# [5] = biological target: Neu5Ac(a2-3)Gal(b1-3)GalNAc6S
# Summary of the method: as §1
# [6] = biological target: Neu5Ac(a2-3)Gal(b1-3)GlcNAc
# Summary of the method: as §1
# [7] = biological target: Neu5Ac(a2-3)Gal(b1-3)GlcNAc(b1-2)Man
# Summary of the method: as §1
# [8] = biological target: Neu5Ac(a2-3)Gal(b1-3)GlcNAc(b1-2)Man(a1-3)[GlcNAc(b1-4)][Neu5Ac(a2-3)Gal(b1-3)GlcNAc(b1-2)Man(a1-6)]Man(b1-4)GlcNAc(b1-4)GlcNAc
# Summary of the method: as §1
# [9] = biological target: Neu5Ac(a2-3)Gal(b1-3)GlcNAc(b1-2)Man(a1-3)[Neu5Ac(a2-3)Gal(b1-3)GlcNAc(b1-2)Man(a1-6)]Man(b1-4)GlcNAc(b1-4)GlcNAc
# Summary of the method: as §1
# [10] = biological target: Neu5Ac(a2-3)Gal(b1-3)GlcNAc(b1-3)Gal(b1-3)GlcNAc
# Summary of the method: as §1
# [11] = biological target: Neu5Ac(a2-3)Gal(b1-3)GlcNAc(b1-3)Gal(b1-4)GlcNAc
# Summary of the method: as §1
# [12] = biological target: Neu5Ac(a2-3)Gal(b1-3)GlcNAc(b1-3)GalNAc
# Summary of the method: as §1
# [13] = biological target: Neu5Ac(a2-3)Gal(b1-3)GlcNAc(b1-4)Gal(b1-4)Glc
# Summary of the method: as §1
# [14] = biological target: Neu5Ac(a2-3)Gal(b1-3)GlcNAc(b1-6)GalNAc
# Summary of the method: as §1
# [15] = biological target: Neu5Ac(a2-3)Gal(b1-3)GlcNAc6S
# Summary of the method: as §1
# [16] = biological target: Neu5Ac(a2-3)Gal(b1-3)[Fuc(a1-4)]GlcNAc
# Summary of the method: as §1
# [17] = biological target: Neu5Ac(a2-3)Gal(b1-3)[Fuc(a1-4)]GlcNAc(b1-3)Gal(b1-3)[Fuc(a1-4)]GlcNAc
# Summary of the method: as §1
# [18] = biological target: Neu5Ac(a2-3)Gal(b1-3)[Fuc(a1-4)]GlcNAc(b1-3)Gal(b1-4)[Fuc(a1-3)]GlcNAc
# Summary of the method: as §1
# [19] = biological target: Neu5Ac(a2-3)Gal(b1-3)[GlcNAc(b1-6)]GalNAc
# Summary of the method: as §1
# [20] = biological target: Neu5Ac(a2-3)Gal(b1-3)[Neu5Ac(a2-6)]GalNAc
# Summary of the method: as §1
# [21] = biological target: Neu5Ac(a2-3)Gal(b1-3)[Neu5Ac(a2-6)]GlcNAc(b1-3)[Fuc(a1-3)[Gal(b1-4)]GlcNAc(b1-6)]Gal(b1-4)Glc
# Summary of the method: as §1
# [22] = biological target: Neu5Ac(a2-3)Gal(b1-3)]Neu5Ac(a2-3)Gal(b1-4)]GlcNAc
# Summary of the method: as §1
# Neu5Ac(a2-3)Gal(b1-4)Glc = biological target: Neu5Ac(a2-3)Gal(b1-4)Glc
# Summary of the method: as §1
# [23] = biological target: Neu5Ac(a2-3)Gal(b1-4)GlcNAc
# Summary of the method: as §1
# [24] = biological target: Neu5Ac(a2-3)Gal(b1-4)GlcNAc(b1-2)Man
# Summary of the method: as §1
# [25] = biological target: Neu5Ac(a2-3)Gal(b1-4)GlcNAc(b1-2)Man(a1-3)[GlcNAc(b1-4)][Neu5Ac(a2-3)Gal(b1-4)GlcNAc(b1-2)Man(a1-6)]Man(b1-4)GlcNAc(b1-4)GlcNAc
# Summary of the method: as §1
# [26] = biological target: Neu5Ac(a2-3)Gal(b1-4)GlcNAc(b1-2)Man(a1-3)[Neu5Ac(a2-3)Gal(b1-4)GlcNAc(b1-2)Man(a1-6)]Man(b1-4)GlcNAc(b1-4)GlcNAc
# Summary of the method: as §1
# [27] = biological target: Neu5Ac(a2-3)Gal(b1-4)GlcNAc(b1-2)Man(a1-3)[Neu5Ac(a2-3)Gal(b1-4)GlcNAc(b1-2)Man(a1-6)]Man(b1-4)GlcNAc(b1-4)[Fuc(a1-6)]GlcNAc
# Summary of the method: as §1
# [28] = biological target: Neu5Ac(a2-3)Gal(b1-4)GlcNAc(b1-2)Man(a1-3)[Neu5Ac(a2-6)Gal(b1-4)GlcNAc(b1-2)Man(a1-6)]Man(b1-4)GlcNAc(b1-4)GlcNAc
# Summary of the method: as §1
# [29] = biological target: Neu5Ac(a2-3)Gal(b1-4)GlcNAc(b1-2)[Neu5Ac(a2-3)Gal(b1-4)GlcNAc(b1-4)]Man(a1-3)[GlcNAc(b1-4)][Neu5Ac(a2-3)Gal(b1-4)GlcNAc(b1-2)[Neu5Ac(a2-3)Gal(b1-4)GlcNAc(b1-6)]Man(a1-6)]Man(b1-4)GlcNAc(b1-4)GlcNAc
# Summary of the method: as §1
# [30] = biological target: Neu5Ac(a2-3)Gal(b1-4)GlcNAc(b1-2)[Neu5Ac(a2-3)Gal(b1-4)GlcNAc(b1-4)]Man(a1-3)[GlcNAc(b1-4)][Neu5Ac(a2-3)Gal(b1-4)GlcNAc(b1-4)Man(a1-6)]Man(b1-4)GlcNAc(b1-4)GlcNAc
# Summary of the method: as §1
# [31] = biological target: Neu5Ac(a2-3)Gal(b1-4)GlcNAc(b1-2)[Neu5Ac(a2-3)Gal(b1-4)GlcNAc(b1-6)]Man(a1-6)[Neu5Ac(a2-3)Gal(b1-4)GlcNAc(b1-2)Man(a1-3)]Man(b1-4)GlcNAc(b1-4)GlcNAc
# Summary of the method: as §1
# [32] = biological target: Neu5Ac(a2-3)Gal(b1-4)GlcNAc(b1-2)[Neu5Ac(a2-3)Gal(b1-4)GlcNAc(b1-6)]Man(a1-6)[Neu5Ac(a2-3)Gal(b1-4)GlcNAc(b1-2)Man(a1-3)][GlcNAc(b1-4)]Man(b1-4)GlcNAc(b1-4)GlcNAc
# Summary of the method: as §1
# [33] = biological target: Neu5Ac(a2-3)Gal(b1-4)GlcNAc(b1-3)Gal
# Summary of the method: as §1
# [34] = biological target: Neu5Ac(a2-3)Gal(b1-4)GlcNAc(b1-3)Gal(b1-3)GlcNAc
# Summary of the method: as §1
# [35] = biological target: Neu5Ac(a2-3)Gal(b1-4)GlcNAc(b1-3)Gal(b1-4)GlcNAc
# Summary of the method: as §1
# [36] = biological target: Neu5Ac(a2-3)Gal(b1-4)GlcNAc(b1-3)Gal(b1-4)GlcNAc(b1-2)Man(a1-3)[Neu5Ac(a2-3)Gal(b1-4)GlcNAc(b1-3)Gal(b1-4)GlcNAc(b1-2)Man(a1-6)]Man(b1-4)GlcNAc(b1-4)GlcNAc
# Summary of the method: as §1
# [37] = biological target: Neu5Ac(a2-3)Gal(b1-4)GlcNAc(b1-3)Gal(b1-4)GlcNAc(b1-3)Gal(b1-4)GlcNAc
# Summary of the method: as §1
# [38] = biological target: Neu5Ac(a2-3)Gal(b1-4)GlcNAc(b1-3)Gal(b1-4)GlcNAc(b1-3)Gal(b1-4)GlcNAc(b1-2)Man(a1-3)[Neu5Ac(a2-3)Gal(b1-4)GlcNAc(b1-3)Gal(b1-4)GlcNAc(b1-3)Gal(b1-4)GlcNAc(b1-2)Man(a1-6)]GalNAc
# Summary of the method: as §1
# [39] = biological target: Neu5Ac(a2-3)Gal(b1-4)GlcNAc(b1-3)Gal(b1-4)GlcNAc(b1-3)GalNAc
# Summary of the method: as §1
# [40] = biological target: Neu5Ac(a2-3)Gal(b1-4)GlcNAc(b1-3)Gal(b1-4)GlcNAc(b1-3)[Neu5Ac(a2-3)Gal(b1-4)GlcNAc(b1-3)Gal(b1-4)GlcNAc(b1-6)]GalNAc
# Summary of the method: as §1
# [41] = biological target: Neu5Ac(a2-3)Gal(b1-4)GlcNAc(b1-3)Gal(b1-4)GlcNAc(b1-6)[Gal(b1-3)]GalNAc
# Summary of the method: as §1
# [42] = biological target: Neu5Ac(a2-3)Gal(b1-4)GlcNAc(b1-3)Gal(b1-4)[Fuc(a1-3)]GlcNAc
# Summary of the method: as §1
# [43] = biological target: Neu5Ac(a2-3)Gal(b1-4)GlcNAc(b1-3)GalNAc
# Summary of the method: as §1
binder,measurement,setting,value
B1,glycan array binding signal (z-score),Neu5Ac(a2-3)Gal,-0.397
same,glycan array binding signal (z-score),[1],0.347
same,glycan array binding signal (z-score),[2],-0.681
same,glycan array binding signal (z-score),[3],-0.868
same,glycan array binding signal (z-score),[4],-0.763
same,glycan array binding signal (z-score),[5],1.01
same,glycan array binding signal (z-score),[6],-0.908
same,glycan array binding signal (z-score),[7],0.337
same,glycan array binding signal (z-score),[8],-0.777
same,glycan array binding signal (z-score),[9],2.25
same,glycan array binding signal (z-score),[10],-0.604
same,glycan array binding signal (z-score),[11],-0.861
same,glycan array binding signal (z-score),[12],-0.401
same,glycan array binding signal (z-score),[13],1
same,glycan array binding signal (z-score),[14],0.265
same,glycan array binding signal (z-score),[15],-0.52
same,glycan array binding signal (z-score),[16],0.368
same,glycan array binding signal (z-score),[17],-0.952
same,glycan array binding signal (z-score),[18],-0.642
same,glycan array binding signal (z-score),[19],-0.657
same,glycan array binding signal (z-score),[20],-0.477
same,glycan array binding signal (z-score),[21],-0.766
same,glycan array binding signal (z-score),[22],-0.026
same,glycan array binding signal (z-score),Neu5Ac(a2-3)Gal(b1-4)Glc,0.347
same,glycan array binding signal (z-score),[23],-0.596
same,glycan array binding signal (z-score),[24],1.09
same,glycan array binding signal (z-score),[25],-1.04
same,glycan array binding signal (z-score),[26],-0.829
same,glycan array binding signal (z-score),[27],-0.805
same,glycan array binding signal (z-score),[28],-1
same,glycan array binding signal (z-score),[29],-0.887
same,glycan array binding signal (z-score),[30],-1.1
same,glycan array binding signal (z-score),[31],0.375
same,glycan array binding signal (z-score),[32],-1.13
same,glycan array binding signal (z-score),[33],-1.17
same,glycan array binding signal (z-score),[34],-0.99
same,glycan array binding signal (z-score),[35],-0.797
same,glycan array binding signal (z-score),[36],-0.806
same,glycan array binding signal (z-score),[37],-0.844
same,glycan array binding signal (z-score),[38],1.55
same,glycan array binding signal (z-score),[39],-0.626
same,glycan array binding signal (z-score),[40],1.36
same,glycan array binding signal (z-score),[41],1.24
same,glycan array binding signal (z-score),[42],-0.586
same,glycan array binding signal (z-score),[43],-0.525
